Binding data for one molecule are collected here from PMC1919423.

Chains of the proteins cited; added tags and fusions are not shown. Residues count along the entry.
UniProt P05161, residues 1-157: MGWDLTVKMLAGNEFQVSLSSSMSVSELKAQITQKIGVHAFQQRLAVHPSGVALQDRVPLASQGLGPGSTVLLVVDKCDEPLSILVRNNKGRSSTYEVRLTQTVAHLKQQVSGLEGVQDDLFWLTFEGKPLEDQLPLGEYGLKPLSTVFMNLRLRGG
UniProt P63165, residues 1-97: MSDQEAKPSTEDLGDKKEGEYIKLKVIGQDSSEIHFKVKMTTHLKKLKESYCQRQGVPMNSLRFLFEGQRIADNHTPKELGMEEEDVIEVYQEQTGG

No constants are given. Whether binding was seen depends on the method and setting. Some entries that bind do so weakly or less than the wild type.

In assay [1] the target is ISG15-vinyl sulfone (human) (UniProt P05161). The assay can be described thus: covalent labelling with active-site directed probes (adduct seen as mobility shift in SDS-PAGE, fluorography); IVT products (RNase B treated) incubated with saturating amounts of the individual probes (0.2–0.4 µg/10 µl IVT lysate); in Figure 4 also with increasing concentrations of purified human 26S proteasomes; only the target purified.

Assay [2] deals with SUMO1-vinylmethyl ester (human) (UniProt P63165). The assay is described as above.

B1: SUMO protease SENP2 (enzyme, UniProt Q9HC62 1-589)
chain: MYRWLVRILGTIFRFCDRSVPPARALLKRRRSDSTLFSTVDTDEIPAKRPRLDCFIHQVKNSLYNAASLFGFPFQLTTKPMVTSACNGTRNVAPSGEVFSNSSSCELTGSGSWNNMLKLGNKSPNGISDYPKIRVTVTRDQPRRVLPSFGFTLNSEGCNRRPGGRRHSKGNPESSLMWKPQEQAVTEMISEESGKGLRRPHCTVEEGVQKEEREKYRKLLERLKESGHGNSVCPVTSNYHSSQRSQMDTLKTKGWGEEQNHGVKTTQFVPKQYRLVETRGPLCSLRSEKRCSKGKITDTETMVGIRFENESRRGYQLEPDLSEEVSARLRLGSGSNGLLRRKVSIIETKEKNCSGKERDRRTDDLLELTEDMEKEISNALGHGPQDEILSSAFKLRITRGDIQTLKNYHWLNDEVINFYMNLLVERNKKQGYPALHVFSTFFYPKLKSGGYQAVKRWTKGVNLFEQEIILVPIHRKVHWSLVVIDLRKKCLKYLDSMGQKGHRICEILLQYLQDESKTKRNSDLNLLEWTHHSMKPHEIPQQLNGSDCGMFTCKYADYISRDKPITFTQHQMPLFRKKMVWEILHQQLL
Take B1: the binding entry in assay [1] is listed as “no binding”; in assay [2], “binds”.
